{"source": "patent US20240059740A1", "about": "(PRE[…] INC., priority 2020, published 2024)", "test": "general procedure: Fmoc solid-phase peptide synthesis; Rink amide resin (0.47 meq/g); Oxyma Pure and DIPCDI", "conditions": "whole synthesis"}
{"substance": "Leu-Pro-c(SSA*-Ala-Leu-Asn-Asp-Glu)-Arg-NH2", "values": [{"measurement": "final HPLC purity", "result": 99.7, "unit": "%"}]}
